log2 fold change data for 23 targets are collected here from the supplement of paper PMC10849652.

By UniProt entry, the sequences of proteins in these tests, tags left out. Where a name states a change or a piece, a line headed by the entry shows the natural chain unless it says otherwise.
UniProt P57076: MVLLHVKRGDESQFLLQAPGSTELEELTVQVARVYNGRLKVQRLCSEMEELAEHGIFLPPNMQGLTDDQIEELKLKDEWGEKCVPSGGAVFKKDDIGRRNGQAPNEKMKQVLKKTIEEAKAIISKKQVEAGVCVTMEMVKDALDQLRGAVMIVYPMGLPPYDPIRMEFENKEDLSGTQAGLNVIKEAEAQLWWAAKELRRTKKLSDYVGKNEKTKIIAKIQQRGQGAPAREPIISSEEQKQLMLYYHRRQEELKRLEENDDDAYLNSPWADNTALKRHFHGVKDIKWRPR
UniProt Q8N4Q1: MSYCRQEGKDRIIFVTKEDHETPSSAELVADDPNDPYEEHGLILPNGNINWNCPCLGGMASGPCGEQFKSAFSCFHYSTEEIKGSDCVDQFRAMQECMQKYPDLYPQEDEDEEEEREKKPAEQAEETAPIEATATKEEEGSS
UniProt Q14839: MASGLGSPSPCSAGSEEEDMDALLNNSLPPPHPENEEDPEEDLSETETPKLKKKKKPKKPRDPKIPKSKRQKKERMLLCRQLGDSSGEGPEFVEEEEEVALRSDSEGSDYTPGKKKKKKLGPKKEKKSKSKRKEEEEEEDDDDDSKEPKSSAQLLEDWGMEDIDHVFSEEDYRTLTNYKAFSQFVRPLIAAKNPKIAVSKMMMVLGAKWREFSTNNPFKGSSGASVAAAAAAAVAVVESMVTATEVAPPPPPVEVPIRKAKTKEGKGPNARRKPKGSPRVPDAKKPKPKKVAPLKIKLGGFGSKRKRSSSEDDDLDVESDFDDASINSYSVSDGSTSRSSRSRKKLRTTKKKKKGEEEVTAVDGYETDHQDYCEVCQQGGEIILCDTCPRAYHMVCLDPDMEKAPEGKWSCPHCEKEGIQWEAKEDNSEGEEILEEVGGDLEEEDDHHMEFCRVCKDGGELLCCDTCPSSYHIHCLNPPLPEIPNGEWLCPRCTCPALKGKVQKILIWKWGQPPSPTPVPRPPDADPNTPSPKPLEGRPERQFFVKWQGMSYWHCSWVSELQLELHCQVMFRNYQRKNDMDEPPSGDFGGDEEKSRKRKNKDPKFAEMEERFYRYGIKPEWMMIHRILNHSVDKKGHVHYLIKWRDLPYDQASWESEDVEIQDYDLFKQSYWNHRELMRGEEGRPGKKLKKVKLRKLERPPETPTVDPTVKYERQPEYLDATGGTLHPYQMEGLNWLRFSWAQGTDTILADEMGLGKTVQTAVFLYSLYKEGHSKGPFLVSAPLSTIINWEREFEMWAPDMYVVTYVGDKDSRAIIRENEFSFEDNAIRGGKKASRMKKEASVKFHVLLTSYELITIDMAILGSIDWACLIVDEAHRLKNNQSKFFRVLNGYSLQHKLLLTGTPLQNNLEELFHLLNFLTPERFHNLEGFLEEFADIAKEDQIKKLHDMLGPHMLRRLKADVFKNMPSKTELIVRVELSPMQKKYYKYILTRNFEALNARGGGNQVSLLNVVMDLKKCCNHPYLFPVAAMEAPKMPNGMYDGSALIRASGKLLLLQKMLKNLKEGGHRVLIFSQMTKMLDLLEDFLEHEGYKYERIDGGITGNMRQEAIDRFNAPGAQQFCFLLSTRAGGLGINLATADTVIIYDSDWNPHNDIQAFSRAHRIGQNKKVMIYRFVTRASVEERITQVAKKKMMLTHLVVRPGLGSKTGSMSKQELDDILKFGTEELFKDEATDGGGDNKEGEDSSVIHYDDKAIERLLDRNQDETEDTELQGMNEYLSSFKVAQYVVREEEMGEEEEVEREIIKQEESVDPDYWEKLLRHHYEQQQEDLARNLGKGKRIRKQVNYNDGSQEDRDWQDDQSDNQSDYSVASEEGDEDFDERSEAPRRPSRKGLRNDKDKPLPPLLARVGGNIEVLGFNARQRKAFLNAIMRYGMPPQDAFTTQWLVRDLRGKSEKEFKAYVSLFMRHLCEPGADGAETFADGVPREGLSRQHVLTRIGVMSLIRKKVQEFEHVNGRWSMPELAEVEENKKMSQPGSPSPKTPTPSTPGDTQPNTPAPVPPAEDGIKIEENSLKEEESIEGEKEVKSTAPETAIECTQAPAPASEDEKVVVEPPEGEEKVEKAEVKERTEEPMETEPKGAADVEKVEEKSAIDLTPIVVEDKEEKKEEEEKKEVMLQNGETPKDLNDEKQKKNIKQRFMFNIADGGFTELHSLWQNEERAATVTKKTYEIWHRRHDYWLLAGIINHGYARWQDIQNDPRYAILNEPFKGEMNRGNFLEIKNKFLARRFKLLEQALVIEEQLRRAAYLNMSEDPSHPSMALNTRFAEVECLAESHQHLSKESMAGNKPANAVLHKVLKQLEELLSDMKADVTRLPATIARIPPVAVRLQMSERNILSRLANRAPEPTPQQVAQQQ
UniProt O15182: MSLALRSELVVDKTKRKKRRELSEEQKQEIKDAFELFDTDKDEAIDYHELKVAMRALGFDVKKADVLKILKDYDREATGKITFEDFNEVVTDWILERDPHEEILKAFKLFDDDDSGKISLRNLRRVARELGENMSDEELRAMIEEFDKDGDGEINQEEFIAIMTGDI
UniProt Q00587: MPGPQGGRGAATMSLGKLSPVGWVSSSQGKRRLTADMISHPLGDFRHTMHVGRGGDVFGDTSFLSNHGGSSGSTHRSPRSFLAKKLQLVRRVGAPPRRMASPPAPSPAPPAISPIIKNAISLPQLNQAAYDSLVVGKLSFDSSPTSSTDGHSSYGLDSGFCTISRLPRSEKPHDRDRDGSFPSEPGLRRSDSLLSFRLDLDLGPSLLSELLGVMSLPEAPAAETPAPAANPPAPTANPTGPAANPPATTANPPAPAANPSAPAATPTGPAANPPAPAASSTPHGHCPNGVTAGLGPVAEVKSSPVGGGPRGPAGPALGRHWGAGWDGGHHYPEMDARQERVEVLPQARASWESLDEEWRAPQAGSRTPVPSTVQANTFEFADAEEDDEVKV
UniProt Q9BV73: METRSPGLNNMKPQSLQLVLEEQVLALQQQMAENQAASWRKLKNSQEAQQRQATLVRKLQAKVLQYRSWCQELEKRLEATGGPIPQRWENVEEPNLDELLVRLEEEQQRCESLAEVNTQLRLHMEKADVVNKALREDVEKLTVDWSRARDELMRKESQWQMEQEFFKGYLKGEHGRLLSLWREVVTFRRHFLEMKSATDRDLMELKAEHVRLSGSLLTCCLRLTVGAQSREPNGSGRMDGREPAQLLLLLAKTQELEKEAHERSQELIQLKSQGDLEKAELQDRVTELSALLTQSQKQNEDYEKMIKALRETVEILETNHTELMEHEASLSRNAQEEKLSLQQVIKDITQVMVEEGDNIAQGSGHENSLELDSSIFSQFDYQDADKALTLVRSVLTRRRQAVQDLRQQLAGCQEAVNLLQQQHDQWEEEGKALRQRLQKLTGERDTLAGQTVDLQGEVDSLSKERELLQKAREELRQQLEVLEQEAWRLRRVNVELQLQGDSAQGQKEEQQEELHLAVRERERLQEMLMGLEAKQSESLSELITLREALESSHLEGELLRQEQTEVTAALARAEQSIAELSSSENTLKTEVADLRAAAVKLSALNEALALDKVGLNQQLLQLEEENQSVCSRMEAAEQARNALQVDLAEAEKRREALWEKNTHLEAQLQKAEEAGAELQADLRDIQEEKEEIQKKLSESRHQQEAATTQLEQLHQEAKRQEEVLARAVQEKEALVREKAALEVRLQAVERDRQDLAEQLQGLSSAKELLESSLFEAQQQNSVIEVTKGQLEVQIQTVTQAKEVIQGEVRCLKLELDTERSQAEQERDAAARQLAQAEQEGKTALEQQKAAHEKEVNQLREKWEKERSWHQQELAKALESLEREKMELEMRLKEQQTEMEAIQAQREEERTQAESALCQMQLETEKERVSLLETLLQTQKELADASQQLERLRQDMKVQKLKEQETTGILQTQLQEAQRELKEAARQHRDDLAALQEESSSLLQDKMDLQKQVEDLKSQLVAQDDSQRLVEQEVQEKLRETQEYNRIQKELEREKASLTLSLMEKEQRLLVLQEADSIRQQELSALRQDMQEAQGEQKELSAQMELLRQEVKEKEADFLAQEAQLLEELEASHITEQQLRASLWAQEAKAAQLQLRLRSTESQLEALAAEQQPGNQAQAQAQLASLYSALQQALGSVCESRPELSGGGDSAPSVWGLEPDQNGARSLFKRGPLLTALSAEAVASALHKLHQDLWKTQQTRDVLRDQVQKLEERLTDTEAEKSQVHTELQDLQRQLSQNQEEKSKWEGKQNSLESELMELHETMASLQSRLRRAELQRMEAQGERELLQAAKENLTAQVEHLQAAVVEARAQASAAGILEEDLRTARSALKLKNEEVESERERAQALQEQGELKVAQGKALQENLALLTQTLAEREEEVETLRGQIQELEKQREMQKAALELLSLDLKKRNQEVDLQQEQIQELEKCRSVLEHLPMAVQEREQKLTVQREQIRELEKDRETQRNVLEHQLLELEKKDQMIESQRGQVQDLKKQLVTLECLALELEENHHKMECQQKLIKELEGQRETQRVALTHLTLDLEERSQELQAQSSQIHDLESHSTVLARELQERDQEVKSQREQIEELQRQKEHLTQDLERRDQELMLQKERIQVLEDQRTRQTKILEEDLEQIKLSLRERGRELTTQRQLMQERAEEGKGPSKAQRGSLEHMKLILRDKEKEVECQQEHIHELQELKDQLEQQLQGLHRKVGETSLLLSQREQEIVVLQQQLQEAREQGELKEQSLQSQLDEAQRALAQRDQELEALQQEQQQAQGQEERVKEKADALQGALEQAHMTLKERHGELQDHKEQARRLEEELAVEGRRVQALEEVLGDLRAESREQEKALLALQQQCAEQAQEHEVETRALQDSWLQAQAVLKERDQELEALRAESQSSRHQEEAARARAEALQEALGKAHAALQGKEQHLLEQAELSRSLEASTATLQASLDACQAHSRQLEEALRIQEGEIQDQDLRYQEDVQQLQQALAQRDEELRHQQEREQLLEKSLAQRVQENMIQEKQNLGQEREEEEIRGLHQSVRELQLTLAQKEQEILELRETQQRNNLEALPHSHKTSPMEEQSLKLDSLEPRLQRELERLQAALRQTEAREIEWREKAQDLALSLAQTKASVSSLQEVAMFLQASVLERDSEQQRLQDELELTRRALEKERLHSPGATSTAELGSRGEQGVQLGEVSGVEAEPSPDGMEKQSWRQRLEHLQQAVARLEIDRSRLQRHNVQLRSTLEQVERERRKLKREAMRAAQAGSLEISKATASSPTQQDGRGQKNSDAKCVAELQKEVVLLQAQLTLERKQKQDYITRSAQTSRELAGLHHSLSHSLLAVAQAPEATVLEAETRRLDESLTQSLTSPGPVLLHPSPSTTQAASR
UniProt Q6IPU0: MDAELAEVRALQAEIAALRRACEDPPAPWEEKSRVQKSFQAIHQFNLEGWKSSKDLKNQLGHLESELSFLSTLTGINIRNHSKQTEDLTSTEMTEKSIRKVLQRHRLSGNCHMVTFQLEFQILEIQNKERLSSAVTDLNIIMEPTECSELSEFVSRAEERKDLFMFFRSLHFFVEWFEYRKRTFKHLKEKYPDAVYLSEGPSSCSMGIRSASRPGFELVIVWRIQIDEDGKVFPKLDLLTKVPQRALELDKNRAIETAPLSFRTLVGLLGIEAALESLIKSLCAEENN
UniProt O43633: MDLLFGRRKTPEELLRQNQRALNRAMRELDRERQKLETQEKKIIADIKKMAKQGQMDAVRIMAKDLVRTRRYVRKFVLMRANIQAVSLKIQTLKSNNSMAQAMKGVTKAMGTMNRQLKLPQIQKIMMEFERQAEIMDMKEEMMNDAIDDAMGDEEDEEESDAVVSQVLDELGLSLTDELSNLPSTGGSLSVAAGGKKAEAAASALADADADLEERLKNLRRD
UniProt P17676: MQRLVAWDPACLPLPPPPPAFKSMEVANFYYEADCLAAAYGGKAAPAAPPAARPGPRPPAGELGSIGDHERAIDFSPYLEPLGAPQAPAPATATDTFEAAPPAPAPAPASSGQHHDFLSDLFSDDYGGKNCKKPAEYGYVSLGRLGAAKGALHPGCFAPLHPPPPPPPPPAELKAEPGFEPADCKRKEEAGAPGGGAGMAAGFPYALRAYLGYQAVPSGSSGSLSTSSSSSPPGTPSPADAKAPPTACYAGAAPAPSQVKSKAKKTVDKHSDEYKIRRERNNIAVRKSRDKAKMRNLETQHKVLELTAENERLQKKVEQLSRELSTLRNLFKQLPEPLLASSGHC
UniProt Q9C0F1: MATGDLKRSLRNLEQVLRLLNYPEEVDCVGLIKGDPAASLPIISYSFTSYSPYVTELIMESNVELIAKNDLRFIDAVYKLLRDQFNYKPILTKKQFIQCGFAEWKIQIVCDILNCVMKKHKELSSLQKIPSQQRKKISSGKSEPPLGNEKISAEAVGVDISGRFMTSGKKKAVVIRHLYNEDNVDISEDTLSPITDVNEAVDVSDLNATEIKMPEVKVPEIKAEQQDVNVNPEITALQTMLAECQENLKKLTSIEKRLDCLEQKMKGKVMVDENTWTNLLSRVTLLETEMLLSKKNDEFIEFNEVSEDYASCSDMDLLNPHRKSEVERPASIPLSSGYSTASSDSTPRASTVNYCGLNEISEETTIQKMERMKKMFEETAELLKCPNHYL

Some of the results follow.

Compound in this test: Cc1sc2c(c1C)C(c1ccc(Cl)cc1)=N[C@@H](CC(=O)OC(C)(C)C)c1nnc(C)n1-2
Description: log2 fold change, soluble protein after heating vs DMSO (PISA); higher = thermal stabilisation; K562 cells, 10 uM, 30 min; active = over 0.2 and 3.5 SD of the protein, either way, in both replicates (recomputed). Summed up: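 K562 cells (2×10^6 cells/mL) were treated with 10 μM compound for 30 min, and aliquots were heated for 3 min over 48°C-58°C. Pooled aliquots were extracted in PBS with 0.5% NP-40 at 4°C, and the supernatant after 21,000xg for 90 min was measured by TMTpro 16plex LC-MS/MS with channel sums equalised. Reported thermal stability, relative to control samples and from duplicates, is a log2 fold change.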
On to CFAP298 (UniProt P57076), for which the log2 fold change is inactive: 0.122.

Regarding CHCHD4 isoform 2 (UniProt Q8N4Q1), the log2 fold change was active: -0.489. To CDCA3 (UniProt Q99618) belongs inactive: 0. On to CHD4 isoform 2 (UniProt Q14839), for which the log2 fold change was inactive: 0.049. To CHD3 isoform 3 (UniProt Q12873) belongs inactive: -0.038; to CDK11B (UniProt P21127), inactive: -0.01.

Regarding CETN3 (UniProt O15182), the log2 fold change was inactive: 0.008.

As to CDC42EP1 (UniProt Q00587), the log2 fold change was inactive: 0.043. To CDC42SE2 (UniProt Q9NRR3) belongs inactive: -0.102; to CEP250 (UniProt Q9BV73), inactive: 0.045; to CELF2 isoform 3 (UniProt O95319), inactive: 0.071. To CGGBP1 (UniProt Q9UFW8) belongs inactive: 0.012; to CENPP (UniProt Q6IPU0), inactive: 0.021; to CHMP2A (UniProt O43633), inactive: -0.031.

As to CHD6 (UniProt Q8TD26), the log2 fold change was inactive: 0.21.

In the case of CEP192 (UniProt Q8TEP8), the log2 fold change is inactive: -0.028. To CEBPB (UniProt P17676) belongs inactive: 0.062; to CDC42BPB (UniProt Q9Y5S2), inactive: 0.025.

For the target CDV3 (UniProt Q9UKY7), the log2 fold change is inactive: -0.005. For the target CEP44 (UniProt Q9C0F1), the log2 fold change was inactive: -0.066. To CDK12 (UniProt Q9NYV4) belongs inactive: 0.112; to CHCHD1 (UniProt Q96BP2), inactive: 0.168; to CFL2 (UniProt Q9Y281), inactive: -0.04.
